The list shows only some results of the screen, not a fair sample: it is rich in T/C values a quarter to a half above the control, in often repeated tests (any T/C) and in doses without a T/C. Other doses and runs of a compound stand elsewhere. T/C is the treated group as % of the vehicle group. Some doses have a count of surviving animals in place of a T/C: the source files T/C as zero there, which appears to mark a toxic dose or a test without result, not a measured value. Some doses without a T/C left all or most animals alive at the check, yet need not have been tolerated: the source hardly ever lists a survival T/C far under the control, and the zero likely stands for such cases as well. Survivors were counted at the toxicity check, usually on the fifth day, unless a day is given; later deaths do not show. Schedule codes are those of the source, taken here to give the interval after Q, in days (D) or hours (H), and the number of doses after X. Some entries were tested several times; the values are given in rising order. Where survival is the endpoint, this PubChem deposit counts one and a half times the control or more as active, and values a quarter to a half above the control carry no call in these data; other NCI protocols may use other cut-offs. Some T/C values are followed by the survivors on the day toxicity was checked, most often the fifth; where none is given, no animal had died by that day.
Tested on: Lewis lung carcinoma i.m., BDF1 mice, T/C %
Assay: NCI In Vivo Anticancer Drug Screen. Data for tumor model Lewis Lung Carcinoma (intramuscular) in B6D2F1 (BDF1) mice
In short: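 Value is the ratio of a treated-group measurement (T) to the matching vehicle-control measurement (C), using either survival or tumour size in mice bearing transplanted tumours.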

[1] = T/C endpoint: median survival time, dose: 50.0 mg/kg/injection, schedule: Q01DX011 (ip), vehicle: saline, higher T/C = longer survival
[2] = T/C endpoint: median survival time, dose: 100.0 mg/kg/injection, schedule: Q01DX011 (ip), vehicle: saline, higher T/C = longer survival
[3] = T/C endpoint: median survival time, dose: 200.0 mg/kg/injection, schedule: Q01DX011 (ip), vehicle: saline, higher T/C = longer survival
[4] = T/C endpoint: median survival time, dose: 40.0 mg/kg/injection, schedule: Q01DX011 (ip), vehicle: saline with Tween-80, higher T/C = longer survival
[5] = T/C endpoint: median survival time, dose: 80.0 mg/kg/injection, schedule: Q01DX011 (ip), vehicle: saline with Tween-80, higher T/C = longer survival
[6] = T/C endpoint: mean tumor weight, dose: 50.0 mg/kg/injection, schedule: Q01DX011 (ip), vehicle: saline, higher T/C = larger tumour
[7] = T/C endpoint: median survival time, dose: 50.0 mg/kg/injection, schedule: Q01DX011 (ip), vehicle: steroid suspending solution, higher T/C = longer survival
[8] = T/C endpoint: median survival time, dose: 8.0 mg/kg/injection, schedule: Q01DX011 (ip), vehicle: saline with Tween-80, higher T/C = longer survival

Compound: C[C@]12CC[C@H](OC3OC(CO)C(O)C(O)C3O)C[C@H]1CC[C@@H]1[C@@H]2CC[C@]2(C)[C@@H](C3=CCOC3=O)CC[C@]12O (some centres not stated)
- survivor count (T/C endpoint: median survival time, dose: 0.5 mg/kg/injection, schedule: Q01DX011 (ip), vehicle: saline, higher T/C = longer survival): 7 of 8
- survivor count (T/C endpoint: median survival time, dose: 1.0 mg/kg/injection, schedule: Q01DX011 (ip), vehicle: saline, higher T/C = longer survival): 0 of 8
- survivor count (T/C endpoint: median survival time, dose: 2.0 mg/kg/injection, schedule: Q01DX011 (ip), vehicle: saline, higher T/C = longer survival): 0 of 8
- survivor count (T/C endpoint: median survival time, dose: 25.0 mg/kg/injection, schedule: Q01DX011 (ip), vehicle: saline, higher T/C = longer survival): 0 of 8
- survivor count [1]: 0 of 8
- survivor count [2]: 0 of 8
- survivor count [3]: 0 of 8

Compound: O=C(CBr)OCCOc1ccccc1
- survivor count (T/C endpoint: mean tumor weight (est.), dose: 40.0 mg/kg/injection, schedule: Q01DX011 (ip), vehicle: saline with Tween-80, higher T/C = larger tumour): 3 of 8
- survivor count [4]: 3 of 8
- survivor count [5]: 0 of 8

Compound: CC1CC(C)(O)CC(C(O)CC2CC(=O)NC(=O)C2)C1=O (configuration not stated)
- survivor count (T/C endpoint: mean tumor weight, dose: 0.2 mg/kg/injection, schedule: Q01DX011 (ip), vehicle: saline, higher T/C = larger tumour): 4 of 8
- survivor count (T/C endpoint: mean tumor weight, dose: 0.4 mg/kg/injection, schedule: Q01DX011 (ip), vehicle: saline, higher T/C = larger tumour): 2 of 8
- survivor count (T/C endpoint: median survival time, dose: 0.2 mg/kg/injection, schedule: Q01DX011 (ip), vehicle: saline, higher T/C = longer survival): 4 of 8
- survivor count (T/C endpoint: median survival time, dose: 0.4 mg/kg/injection, schedule: Q01DX011 (ip), vehicle: saline, higher T/C = longer survival): 2 of 8
- survivor count (T/C endpoint: median survival time, dose: 0.8 mg/kg/injection, schedule: Q01DX011 (ip), vehicle: saline, higher T/C = longer survival): 0 of 8

Compound: CC1(C)N=C(N)N=C(N)N1c1ccc(CCc2ccccc2)cc1
- survivor count [6]: 5 of 8
- survivor count (T/C endpoint: mean tumor weight, dose: 100.0 mg/kg/injection, schedule: Q01DX011 (ip), vehicle: saline, higher T/C = larger tumour): 4 of 8
- survivor count [1]: 5 of 8
- survivor count [2]: 4 of 8

Compound: CC1OC(O[C@@H]2C=C3CC[C@@H]4[C@H](CC[C@]5(C)[C@@H](c6ccc(=O)oc6)CC[C@]45O)[C@@]3(C)CC2)C(O)C(O)C1O (some centres not stated)
- T/C (T/C endpoint: median survival time, dose: 0.62 mg/kg/injection, schedule: Q01DX011 (ip), vehicle: steroid suspending solution, higher T/C = longer survival): 141 % of control [6 of 8 alive]

Compound: Cc1c(C(=O)O)nc(/C=C/C(=O)O)[nH]c1=O
- survivor count (T/C endpoint: median survival time, dose: 32.0 mg/kg/injection, schedule: Q01DX009 (ip), vehicle: water, higher T/C = longer survival): 10 of 10

Compound: Nc1ncc(N)c(N)n1
- survivor count (T/C endpoint: mean tumor weight (est.), dose: 320.0 mg/kg/injection, schedule: Q01DX011 (ip), vehicle: saline, higher T/C = larger tumour): 5 of 8
- survivor count (T/C endpoint: median survival time, dose: 320.0 mg/kg/injection, schedule: Q01DX011 (ip), vehicle: saline, higher T/C = longer survival): 5 of 8

Compound: O=[N+]([O-])O.[Ga]
- survivor count [6]: 1 of 8
- survivor count [1]: 1 of 8
- survivor count [2]: 0 of 8
- survivor count [3]: 0 of 8
- survivor count (T/C endpoint: median survival time, dose: 400.0 mg/kg/injection, schedule: Q01DX011 (ip), vehicle: saline, higher T/C = longer survival): 0 of 8

Compound: NC(C=O)C(O)C(O)C(O)CO (configuration not stated)
- T/C (T/C endpoint: median survival time, dose: 750.0 mg/kg/injection, schedule: Q01DX011 (ip), vehicle: saline, higher T/C = longer survival): 129 % of control [7 of 8 alive]

Compound: COc1cc([C@@H]2c3cc4c(cc3[C@@H](OC3OC5CO[C@@H](c6cccs6)OC5C(O)C3O)[C@H]3COC(=O)[C@H]23)OCO4)cc(OC)c1O (some centres not stated)
- survivor count (T/C endpoint: median survival time, dose: 4.0 mg/kg/injection, schedule: Q01DX011 (ip), vehicle: saline, higher T/C = longer survival): 2 of 8
- T/C (T/C endpoint: median survival time, dose: 16.0 mg/kg/injection, schedule: Q04DX003 (ip), vehicle: saline, evaluated on day 7, higher T/C = longer survival): 135 % of control
- T/C (T/C endpoint: median survival time, dose: 16.0 mg/kg/injection, schedule: Q04DX003 (ip), vehicle: saline, evaluated on day 49, higher T/C = longer survival): 135 % of control
- survivor count (T/C endpoint: median survival time, dose: 32.0 mg/kg/injection, schedule: Q04DX003 (ip), vehicle: saline, higher T/C = longer survival): 8 of 8

Compound: O=C1CN(CCN2CC(=O)NC(=O)C2)CC(=O)N1
- survivor count (T/C endpoint: mean tumor weight, dose: 100.0 mg/kg/injection, schedule: Q01DX011 (ip), vehicle: steroid suspending solution, higher T/C = larger tumour): 5 of 8
- T/C [7]: 127 % of control [7 of 8 alive]
- survivor count [7]: 6 of 8
- survivor count (T/C endpoint: median survival time, dose: 100.0 mg/kg/injection, schedule: Q01DX011 (ip), vehicle: steroid suspending solution, higher T/C = longer survival): 0 of 8 and 5 of 8

Compound: c1ccc(-c2csc3c4ccccc4c4ccccc4[n+]23)cc1
- survivor count (T/C endpoint: mean tumor weight (est.), dose: 1.0 mg/kg/injection, schedule: Q01DX011 (ip), vehicle: saline with Tween-80, higher T/C = larger tumour): 4 of 8
- survivor count (T/C endpoint: median survival time, dose: 1.0 mg/kg/injection, schedule: Q01DX011 (ip), vehicle: saline with Tween-80, higher T/C = longer survival): 4 of 8
- survivor count (T/C endpoint: median survival time, dose: 4.0 mg/kg/injection, schedule: Q01DX011 (ip), vehicle: saline with Tween-80, higher T/C = longer survival): 0 of 8
- survivor count [8]: 0 of 8

Compound: Nc1nc(N)c2nc(CNc3ccc(C(=O)NC(CCC(=O)O)C(=O)O)cc3)cnc2n1 (configuration not stated)
- survivor count (T/C endpoint: median survival time, dose: 130.0 micrograms/kg/injection, schedule: Q01DX011 (ip), vehicle: other, higher T/C = longer survival): 1 of 8
- survivor count (T/C endpoint: median survival time, dose: 260.0 micrograms/kg/injection, schedule: Q01DX011 (ip), vehicle: other, higher T/C = longer survival): 0 of 8

Compound: O=Nc1c(N=O)c(N=O)c(N=O)c(N=O)c1N=O
- survivor count [4]: 3 of 8
- survivor count [5]: 0 of 8

Compound: CCCCNC(C)(C)COC(=O)/C=C/c1ccc(OCCCC)cc1
- survivor count (T/C endpoint: median survival time, dose: 200.0 mg/kg/injection, schedule: Q01DX011 (ip), vehicle: saline with Tween-80, higher T/C = longer survival): 0 of 8

Compound: CC(C)(C)CC(C)(C)NCC(O)COc1ccc(C(C)(C)c2ccc(OCC(O)CNC(C)(C)CC(C)(C)C)cc2)cc1 (configuration not stated)
- survivor count (T/C endpoint: mean tumor weight (est.), dose: 6.25 mg/kg/injection, schedule: Q01DX011 (ip), vehicle: other, higher T/C = larger tumour): 2 of 8
- survivor count (T/C endpoint: median survival time, dose: 3.12 mg/kg/injection, schedule: Q01DX011 (ip), vehicle: other, higher T/C = longer survival): 8 of 8
- survivor count (T/C endpoint: median survival time, dose: 6.25 mg/kg/injection, schedule: Q01DX011 (ip), vehicle: other, higher T/C = longer survival): 2 of 8
- survivor count (T/C endpoint: median survival time, dose: 12.5 mg/kg/injection, schedule: Q01DX011 (ip), vehicle: other, higher T/C = longer survival): 0 of 8
- survivor count (T/C endpoint: median survival time, dose: 25.0 mg/kg/injection, schedule: Q01DX011 (ip), vehicle: other, higher T/C = longer survival): 0 of 8

Compound: O=NN(CCCl)C(=O)NC1CCCCC1
- survivor count (T/C endpoint: median survival time, dose: 4.0 mg/kg/injection, schedule: Q01DX012 (ip), vehicle: saline + alcohol, higher T/C = longer survival): 10 of 10
- survivor count [8]: 7 of 8
- survivor count (T/C endpoint: median survival time, dose: 8.0 mg/kg/injection, schedule: Q01DX012 (ip), vehicle: saline + alcohol, higher T/C = longer survival): 6 of 10
- survivor count (T/C endpoint: median survival time, dose: 14.0 mg/kg/injection, schedule: Q07DX003 (ip), vehicle: saline, higher T/C = longer survival): 8 of 8
- survivor count (T/C endpoint: median survival time, dose: 16.0 mg/kg/injection, schedule: Q01DX011 (ip), vehicle: saline + alcohol, higher T/C = longer survival): 10 of 10
- T/C (T/C endpoint: median survival time, dose: 16.0 mg/kg/injection, schedule: Q01DX011 (ip), vehicle: saline with Tween-80, higher T/C = longer survival): 133 % of control [7 of 8 alive]
- T/C (T/C endpoint: median survival time, dose: 23.0 mg/kg/injection, schedule: Q01DX001 (sc), vehicle: saline, higher T/C = longer survival): 143 % of control
- survivor count (T/C endpoint: median survival time, dose: 32.0 mg/kg/injection, schedule: Q01DX011 (ip), vehicle: saline + alcohol, higher T/C = longer survival): 3 of 10
- survivor count (T/C endpoint: median survival time, dose: 32.0 mg/kg/injection, schedule: Q01DX011 (ip), vehicle: saline with Tween-80, higher T/C = longer survival): 7 of 8
- survivor count (T/C endpoint: median survival time, dose: 32.0 mg/kg/injection, schedule: Q01DX012 (ip), vehicle: saline + alcohol, higher T/C = longer survival): 10 of 10
- T/C (T/C endpoint: median survival time, dose: 39.0 mg/kg/injection, schedule: Q01DX001 (ip), vehicle: saline, higher T/C = longer survival): 129 % of control
- survivor count (T/C endpoint: median survival time, dose: 64.0 mg/kg/injection, schedule: Q01DX011 (ip), vehicle: saline + alcohol, higher T/C = longer survival): 0 of 10
- survivor count (T/C endpoint: median survival time, dose: 64.0 mg/kg/injection, schedule: Q01DX011 (ip), vehicle: saline with Tween-80, higher T/C = longer survival): 0 of 8
- survivor count (T/C endpoint: median survival time, dose: 64.0 mg/kg/injection, schedule: Q01DX012 (ip), vehicle: saline + alcohol, higher T/C = longer survival): 1 of 10
- T/C (T/C endpoint: median survival time, dose: 65.0 mg/kg/injection, schedule: Q07DX003 (ip), vehicle: saline, higher T/C = longer survival): 130 % of control
- survivor count (T/C endpoint: median survival time, dose: 108.0 mg/kg/injection, schedule: Q07DX003 (ip), vehicle: saline, higher T/C = longer survival): 5 of 8

Source: PubChem BioAssay AID272 (DTP/NCI, 2004)
